Results published in PubChem BioAssay AID330 (DTP/NCI, 2004).
The list shows only some results of the screen, not a fair sample: it gathers tests that were run many times, whatever their T/C, doses with no T/C, and many T/C values between a quarter and a half above the control. Further doses and runs are listed elsewhere. T/C gives the treated animals as a percentage of the vehicle group. Some doses have a count of surviving animals in place of a T/C: the source holds a T/C of zero for them, seemingly a mark for toxic or unscored doses. Some survivor counts are full or nearly so, which does not show that the dose was tolerated: the source hardly ever lists a survival T/C far under the control, and the zero likely stands for such cases as well. Survivors were counted at the toxicity check, usually on the fifth day, unless a day is given; later deaths do not show. Schedule codes are those of the source, read here as Q, the interval in days (D) or hours (H), X, the number of doses. Where survival is the endpoint, the PubChem record calls one and a half times the control and up active, and a quarter to a half above the control has no call in these data; cut-offs in other NCI protocols can differ. Some T/C values are followed by the survivors on the day toxicity was checked, most often the fifth; where none is given, no animal had died by that day. Some doses were run more than once; the values are given in rising order.

Test system: P388 leukemia ip, CD2F1 mice, survival T/C
Assay: NCI In Vivo Anticancer Drug Screen. Data for tumor model P388 Leukemia (intraperitoneal) in CD2F1 (CDF1) mice
Conditions: T/C endpoint: median survival time, higher T/C = longer survival
[1] = dose: 50.0 mg/kg/injection, schedule: Q01DX009 (ip), vehicle: saline with Tween-80
[2] = dose: 200.0 mg/kg/injection, schedule: Q01DX009 (ip), vehicle: saline with Tween-80
[3] = dose: 0.42 mg/kg/injection, schedule: Q01DX009 (ip), vehicle: saline

SMILES: C=C(NC(C)=O)C(=O)O
- survivor count (dose: 25.0 mg/kg/injection, schedule: Q01DX009 (ip), vehicle: saline with Tween-80): 6 of 6
- survivor count [1]: 5 of 6
- survivor count (dose: 200.0 mg/kg/injection, schedule: Q01DX001 (ip), vehicle: saline with Tween-80): 1 of 6
- survivor count (dose: 400.0 mg/kg/injection, schedule: Q01DX001 (ip), vehicle: saline with Tween-80): 0 of 6

SMILES: Cc1cn(Cc2ccc(Cl)cc2Cl)c(C)n1
- survivor count (dose: 120.0 mg/kg/injection, schedule: Q01DX005 (ip), vehicle: saline with Tween-80): 0 of 6
- survivor count (dose: 240.0 mg/kg/injection, schedule: Q01DX005 (ip), vehicle: saline with Tween-80): 0 of 6

SMILES: NC(=O)CNCC1Cc2ccccc21 (stereo not drawn)
- survivor count (dose: 240.0 mg/kg/injection, schedule: Q01DX005 (ip), vehicle: saline): 2 of 6

SMILES: CC(C)(C)C1=CC2(C(C)(C)C)OC2C(=O)C1=O (stereo not drawn)
- survivor count (dose: 50.0 mg/kg/injection, schedule: Q01DX009 (ip), vehicle: saline): 0 of 6
- survivor count (dose: 100.0 mg/kg/injection, schedule: Q01DX009 (ip), vehicle: saline): 0 of 6
- survivor count (dose: 200.0 mg/kg/injection, schedule: Q01DX009 (ip), vehicle: saline): 0 of 6

SMILES: CC(=O)NCc1cc(C)c(CBr)cc1CBr
- survivor count (dose: 12.5 mg/kg/injection, schedule: Q01DX009 (ip), vehicle: distilled water + Tween-80): 5 of 6
- survivor count (dose: 25.0 mg/kg/injection, schedule: Q01DX009 (ip), vehicle: distilled water + Tween-80): 0 of 6
- survivor count (dose: 50.0 mg/kg/injection, schedule: Q01DX009 (ip), vehicle: distilled water + Tween-80): 0 of 6
- survivor count (dose: 100.0 mg/kg/injection, schedule: Q01DX009 (ip), vehicle: distilled water + Tween-80): 0 of 6
- survivor count (dose: 200.0 mg/kg/injection, schedule: Q01DX009 (ip), vehicle: distilled water + Tween-80): 0 of 6

SMILES: COc1ccc2nc3cc(Cl)ccc3c(NCCOCCO)c2c1
- survivor count [2]: 4 of 6

SMILES: CCN1/C(=C/C=C/C=C/c2sc3ccccc3[n+]2CC)Sc2ccccc21
- T/C (dose: 0.08 mg/kg/injection, schedule: Q01DX009 (ip), vehicle: saline): 131 % of control
- T/C (dose: 0.1 mg/kg/injection, schedule: Q01DX009 (ip), vehicle: saline): 132 % of control
- T/C (dose: 0.12 mg/kg/injection, schedule: Q01DX009 (ip), vehicle: saline): 127 and 137 % of control [5 of 6 alive]
- T/C (dose: 0.19 mg/kg/injection, schedule: Q01DX009 (ip), vehicle: saline): 127 and 144 % of control [5 of 6 alive]
- T/C (dose: 0.2 mg/kg/injection, schedule: Q01DX009 (ip), vehicle: saline): 137 % of control
- T/C (dose: 0.25 mg/kg/injection, schedule: Q01DX009 (ip), vehicle: saline): 134 % of control [5 of 6 alive]
- survivor count (dose: 0.28 mg/kg/injection, schedule: Q01DX009 (ip), vehicle: saline): 2 of 6
- T/C (dose: 0.3 mg/kg/injection, schedule: Q01DX009 (ip), vehicle: saline): 138 % of control
- T/C (dose: 0.4 mg/kg/injection, schedule: Q01DX009 (ip), vehicle: saline): 137 % of control
- T/C [3]: 130 % of control
- survivor count [3]: 2 of 6
- survivor count (dose: 0.5 mg/kg/injection, schedule: Q01DX009 (ip), vehicle: saline): 2 of 6
- survivor count (dose: 1.0 mg/kg/injection, schedule: Q01DX009 (ip), vehicle: saline): 2 of 6

SMILES: O=C1c2ccccc2C(=O)c2c1oc1c2ccc2ccccc21
- survivor count [1]: 6 of 6
- survivor count [2]: 6 of 6

SMILES: CC1=C(C)CN(CCc2c[nH]c3ccccc23)C(C#N)C1 (stereo not drawn)
- survivor count (dose: 100.0 mg/kg/injection, schedule: Q01DX005 (ip), vehicle: saline with Tween-80): 0 of 5
- survivor count (dose: 200.0 mg/kg/injection, schedule: Q01DX005 (ip), vehicle: saline with Tween-80): 0 of 5
